Measured values reported in publication doi:10.1101/2024.03.04.583402.
Results are given in words; binding and its absence hold for the method and conditions named. In cells and extracts the contact can be indirect. A result given as binding can be weak or reduced; the word gives no strength.

Biological target: T1, retinoid X receptor α (UniProt P28700)
T1 sequence: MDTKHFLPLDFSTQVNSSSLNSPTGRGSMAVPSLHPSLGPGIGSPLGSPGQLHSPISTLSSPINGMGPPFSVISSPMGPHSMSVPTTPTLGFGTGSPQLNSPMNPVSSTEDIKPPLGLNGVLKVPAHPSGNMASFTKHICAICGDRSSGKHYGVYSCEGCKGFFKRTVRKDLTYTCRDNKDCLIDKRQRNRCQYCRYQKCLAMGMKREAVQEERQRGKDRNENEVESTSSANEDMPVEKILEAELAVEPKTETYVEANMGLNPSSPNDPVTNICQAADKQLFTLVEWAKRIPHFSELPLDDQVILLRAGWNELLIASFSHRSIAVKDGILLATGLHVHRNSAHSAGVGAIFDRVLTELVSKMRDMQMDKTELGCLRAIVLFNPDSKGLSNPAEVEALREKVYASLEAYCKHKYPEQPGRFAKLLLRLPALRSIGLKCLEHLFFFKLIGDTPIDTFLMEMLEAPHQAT
Experiment: co-IP

binding: binds
Substance: Zinc finger protein 407
